# Data reported in PubChem BioAssay.
# Where “and” joins values, the source holds several entries; their conditions need not be identical. Identical values can stand only once. Some of the results follow. Further columns of the screen follow, without active or inactive calls. Peptide text beside a SMILES is read from it.
# Assay: rescue of PC12 cells from polyQ htt toxicity – LDH release (AID 1610)
# Conditions: PC12 mutant huntingtin toxicity, final LDH at 4 uM, stronger effect = lower value
row,SMILES,normalised LDH release
1,NCCCCC(N)C(=O)NC(Cc1ccc(O)cc1)C(=O)NC(CCCCN)C(=O)O (stereo not drawn) (H-Lys-Tyr-Lys-OH; configuration not given here),1.17
2,C[N+]1(C)CCCC(OC(=O)C(O)(c2ccccc2)c2ccccc2)C1 (stereo not given),1.06
3,NCCCCCCNS(=O)(=O)c1cccc2c(Cl)cccc12,1.11 and 1.1 and 0.937
4,CC(=O)NC1SCCC1=O (stereo not given),0.8
5,CC(=C(CCOP(=O)(O)O)SC(=O)c1ccccc1)N(C=O)Cc1cnc(C)nc1N,1.11
6,CCOc1ccc(Cc2nccc3cc(OCC)c(OCC)cc23)cc1OCC,0.872
7,NC(Cc1ccc(Cl)cc1)C(=O)O (stereo not given),0.45
8,CCCCOc1cc(C(=O)NCCN(CC)CC)c2ccccc2n1,0.854
9,COc1cc2nc(N3CCN(C(=O)c4ccco4)CC3)nc(N)c2cc1OC,0.331
10,Nc1c2c(nc3ccccc13)CCCC2O (stereo not given),0.967
11,C1CCN2C[C@H]3C[C@H](CN4CCCC[C@@H]34)[C@H]2C1,0.929
12,CCn1cc(C(=O)O)c(=O)c2cc(F)c(N3CCNC(C)C3)c(F)c21 (stereo not given),0.171
13,CCn1cc(C(=O)O)c(=O)c2cnc(N3CCCC3)nc21,1.11
14,O=C1C(O)=C(O)C(=O)C(O)=C1O,0.572
15,Cc1cc(Nc2ccccc2C(=O)O)ccc1Cl,0.546
16,COc1ccc(C2Sc3ccccc3N(CCN(C)C)C(=O)C2OC(C)=O)cc1 (stereo not given),1.18
17,CCCc1cc(=O)[nH]c(=S)[nH]1,0.848
18,CS(=O)(=O)Nc1ccc([N+](=O)[O-])cc1Oc1ccccc1,1.01
19,Cc1ccc(C(=O)c2ccc(CC(=O)O)n2C)cc1,0.689
20,CC(=O)NCCCCCC(=O)O,0.589
